The other results are listed elsewhere or left out.
Assays:
Experiment in all cases: log2 fold change, soluble protein after heating vs DMSO (PISA); higher = thermal stabilisation; K562 lysate, 10 uM; active = over 0.2 and 3.5 SD of the protein, either way, in both replicates (recomputed)
erlotinib = compound: C#Cc1cccc(Nc2ncnc3cc(OCCOC)c(OCCOC)cc23)c1 [erlotinib]
Method in brief: (§1)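 Thermal stability, expressed as log-two fold change relative to solvent controls, is given from duplicates. Crude K562 extract in PBS pH 7.4 with 1 mM MgCl2, at 1 mg/mL protein, was treated with 10 μM compound for 30 min and heated in aliquots for 3 min across 48°C-58°C. After pooling, adjustment to 0.5% NP-40 at 4°C and centrifugation at 21,000xg for 90 min, supernatant protein was measured by TMTpro 16plex LC-MS/MS with channel sums equalised.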

Sequences of proteins named here, by UniProt entry; tags and fusion partners are left off. A change or cut given only in a name is not applied to a line headed by its entry.
UniProt Q14019: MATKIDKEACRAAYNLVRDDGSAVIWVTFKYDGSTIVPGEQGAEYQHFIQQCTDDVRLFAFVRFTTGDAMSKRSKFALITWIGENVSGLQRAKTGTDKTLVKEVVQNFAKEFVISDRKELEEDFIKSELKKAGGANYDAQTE
UniProt Q9P2I0: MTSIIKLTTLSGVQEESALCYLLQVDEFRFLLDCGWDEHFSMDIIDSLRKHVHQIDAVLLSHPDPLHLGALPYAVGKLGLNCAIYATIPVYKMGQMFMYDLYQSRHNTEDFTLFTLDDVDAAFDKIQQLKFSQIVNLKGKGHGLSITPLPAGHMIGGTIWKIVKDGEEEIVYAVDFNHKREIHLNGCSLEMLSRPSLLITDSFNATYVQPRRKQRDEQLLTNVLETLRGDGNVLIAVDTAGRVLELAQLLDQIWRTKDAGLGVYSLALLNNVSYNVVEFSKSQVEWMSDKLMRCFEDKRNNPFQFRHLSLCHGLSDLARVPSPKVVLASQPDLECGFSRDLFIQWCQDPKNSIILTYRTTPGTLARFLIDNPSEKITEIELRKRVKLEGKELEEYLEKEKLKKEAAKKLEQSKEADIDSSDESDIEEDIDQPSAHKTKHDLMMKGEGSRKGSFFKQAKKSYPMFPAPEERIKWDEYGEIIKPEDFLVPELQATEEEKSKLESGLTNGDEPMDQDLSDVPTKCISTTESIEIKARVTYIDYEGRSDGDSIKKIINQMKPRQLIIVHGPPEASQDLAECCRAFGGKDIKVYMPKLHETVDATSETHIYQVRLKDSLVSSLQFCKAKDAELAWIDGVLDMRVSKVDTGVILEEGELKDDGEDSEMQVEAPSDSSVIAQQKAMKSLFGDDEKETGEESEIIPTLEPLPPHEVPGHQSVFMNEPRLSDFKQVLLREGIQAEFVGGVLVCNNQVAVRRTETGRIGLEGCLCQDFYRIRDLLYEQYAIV
UniProt P10606, whole entry, looked up: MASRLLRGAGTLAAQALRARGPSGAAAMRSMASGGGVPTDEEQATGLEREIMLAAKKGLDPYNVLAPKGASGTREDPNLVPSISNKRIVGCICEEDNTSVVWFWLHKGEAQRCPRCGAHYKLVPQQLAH
UniProt Q9H9Q2: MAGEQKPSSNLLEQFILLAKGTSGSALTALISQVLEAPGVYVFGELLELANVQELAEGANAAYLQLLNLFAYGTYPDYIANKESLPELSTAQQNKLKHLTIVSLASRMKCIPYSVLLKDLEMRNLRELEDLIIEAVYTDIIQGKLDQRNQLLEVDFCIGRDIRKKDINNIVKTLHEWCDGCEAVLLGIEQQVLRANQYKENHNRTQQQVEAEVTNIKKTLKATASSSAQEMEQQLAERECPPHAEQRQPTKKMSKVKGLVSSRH
UniProt P14854, whole entry, looked up: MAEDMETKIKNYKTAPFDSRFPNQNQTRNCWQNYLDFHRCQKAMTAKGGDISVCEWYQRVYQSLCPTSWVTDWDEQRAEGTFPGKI
UniProt Q9Y2B0: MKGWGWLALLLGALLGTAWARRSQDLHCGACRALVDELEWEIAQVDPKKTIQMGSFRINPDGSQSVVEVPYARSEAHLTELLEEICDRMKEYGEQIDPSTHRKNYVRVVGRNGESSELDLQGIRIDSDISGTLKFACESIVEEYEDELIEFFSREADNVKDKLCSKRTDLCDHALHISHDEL
UniProt Q8NI60: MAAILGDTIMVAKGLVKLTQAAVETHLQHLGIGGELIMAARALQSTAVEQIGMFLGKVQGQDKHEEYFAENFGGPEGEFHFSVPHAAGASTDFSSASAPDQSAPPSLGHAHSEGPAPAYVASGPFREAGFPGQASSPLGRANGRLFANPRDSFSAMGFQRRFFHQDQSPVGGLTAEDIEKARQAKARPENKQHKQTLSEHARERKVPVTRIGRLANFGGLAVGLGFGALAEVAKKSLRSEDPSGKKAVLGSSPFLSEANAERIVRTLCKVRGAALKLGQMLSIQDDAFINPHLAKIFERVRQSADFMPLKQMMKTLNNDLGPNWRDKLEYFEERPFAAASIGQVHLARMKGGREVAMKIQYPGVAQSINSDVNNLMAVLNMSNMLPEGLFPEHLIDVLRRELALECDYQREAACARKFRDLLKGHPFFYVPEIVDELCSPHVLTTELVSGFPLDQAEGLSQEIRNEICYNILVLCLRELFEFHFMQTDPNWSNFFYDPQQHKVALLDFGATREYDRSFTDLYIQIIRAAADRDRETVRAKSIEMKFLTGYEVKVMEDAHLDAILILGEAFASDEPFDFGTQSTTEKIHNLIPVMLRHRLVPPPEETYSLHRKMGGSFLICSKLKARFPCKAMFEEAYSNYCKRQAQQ
UniProt Q92828: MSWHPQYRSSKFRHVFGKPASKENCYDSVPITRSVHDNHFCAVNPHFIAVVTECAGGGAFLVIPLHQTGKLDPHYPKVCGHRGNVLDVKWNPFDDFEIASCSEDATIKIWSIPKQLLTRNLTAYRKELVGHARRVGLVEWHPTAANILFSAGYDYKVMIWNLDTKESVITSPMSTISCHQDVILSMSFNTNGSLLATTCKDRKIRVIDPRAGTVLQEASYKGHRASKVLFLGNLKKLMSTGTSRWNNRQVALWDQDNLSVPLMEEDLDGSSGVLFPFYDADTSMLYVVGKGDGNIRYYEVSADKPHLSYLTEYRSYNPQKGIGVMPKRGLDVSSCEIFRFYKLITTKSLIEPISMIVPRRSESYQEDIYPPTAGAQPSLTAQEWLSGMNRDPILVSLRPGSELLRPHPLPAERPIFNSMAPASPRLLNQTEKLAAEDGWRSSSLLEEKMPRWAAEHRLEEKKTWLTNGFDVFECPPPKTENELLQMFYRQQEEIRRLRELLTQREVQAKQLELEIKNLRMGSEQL
UniProt A5YKK6, whole entry, looked up: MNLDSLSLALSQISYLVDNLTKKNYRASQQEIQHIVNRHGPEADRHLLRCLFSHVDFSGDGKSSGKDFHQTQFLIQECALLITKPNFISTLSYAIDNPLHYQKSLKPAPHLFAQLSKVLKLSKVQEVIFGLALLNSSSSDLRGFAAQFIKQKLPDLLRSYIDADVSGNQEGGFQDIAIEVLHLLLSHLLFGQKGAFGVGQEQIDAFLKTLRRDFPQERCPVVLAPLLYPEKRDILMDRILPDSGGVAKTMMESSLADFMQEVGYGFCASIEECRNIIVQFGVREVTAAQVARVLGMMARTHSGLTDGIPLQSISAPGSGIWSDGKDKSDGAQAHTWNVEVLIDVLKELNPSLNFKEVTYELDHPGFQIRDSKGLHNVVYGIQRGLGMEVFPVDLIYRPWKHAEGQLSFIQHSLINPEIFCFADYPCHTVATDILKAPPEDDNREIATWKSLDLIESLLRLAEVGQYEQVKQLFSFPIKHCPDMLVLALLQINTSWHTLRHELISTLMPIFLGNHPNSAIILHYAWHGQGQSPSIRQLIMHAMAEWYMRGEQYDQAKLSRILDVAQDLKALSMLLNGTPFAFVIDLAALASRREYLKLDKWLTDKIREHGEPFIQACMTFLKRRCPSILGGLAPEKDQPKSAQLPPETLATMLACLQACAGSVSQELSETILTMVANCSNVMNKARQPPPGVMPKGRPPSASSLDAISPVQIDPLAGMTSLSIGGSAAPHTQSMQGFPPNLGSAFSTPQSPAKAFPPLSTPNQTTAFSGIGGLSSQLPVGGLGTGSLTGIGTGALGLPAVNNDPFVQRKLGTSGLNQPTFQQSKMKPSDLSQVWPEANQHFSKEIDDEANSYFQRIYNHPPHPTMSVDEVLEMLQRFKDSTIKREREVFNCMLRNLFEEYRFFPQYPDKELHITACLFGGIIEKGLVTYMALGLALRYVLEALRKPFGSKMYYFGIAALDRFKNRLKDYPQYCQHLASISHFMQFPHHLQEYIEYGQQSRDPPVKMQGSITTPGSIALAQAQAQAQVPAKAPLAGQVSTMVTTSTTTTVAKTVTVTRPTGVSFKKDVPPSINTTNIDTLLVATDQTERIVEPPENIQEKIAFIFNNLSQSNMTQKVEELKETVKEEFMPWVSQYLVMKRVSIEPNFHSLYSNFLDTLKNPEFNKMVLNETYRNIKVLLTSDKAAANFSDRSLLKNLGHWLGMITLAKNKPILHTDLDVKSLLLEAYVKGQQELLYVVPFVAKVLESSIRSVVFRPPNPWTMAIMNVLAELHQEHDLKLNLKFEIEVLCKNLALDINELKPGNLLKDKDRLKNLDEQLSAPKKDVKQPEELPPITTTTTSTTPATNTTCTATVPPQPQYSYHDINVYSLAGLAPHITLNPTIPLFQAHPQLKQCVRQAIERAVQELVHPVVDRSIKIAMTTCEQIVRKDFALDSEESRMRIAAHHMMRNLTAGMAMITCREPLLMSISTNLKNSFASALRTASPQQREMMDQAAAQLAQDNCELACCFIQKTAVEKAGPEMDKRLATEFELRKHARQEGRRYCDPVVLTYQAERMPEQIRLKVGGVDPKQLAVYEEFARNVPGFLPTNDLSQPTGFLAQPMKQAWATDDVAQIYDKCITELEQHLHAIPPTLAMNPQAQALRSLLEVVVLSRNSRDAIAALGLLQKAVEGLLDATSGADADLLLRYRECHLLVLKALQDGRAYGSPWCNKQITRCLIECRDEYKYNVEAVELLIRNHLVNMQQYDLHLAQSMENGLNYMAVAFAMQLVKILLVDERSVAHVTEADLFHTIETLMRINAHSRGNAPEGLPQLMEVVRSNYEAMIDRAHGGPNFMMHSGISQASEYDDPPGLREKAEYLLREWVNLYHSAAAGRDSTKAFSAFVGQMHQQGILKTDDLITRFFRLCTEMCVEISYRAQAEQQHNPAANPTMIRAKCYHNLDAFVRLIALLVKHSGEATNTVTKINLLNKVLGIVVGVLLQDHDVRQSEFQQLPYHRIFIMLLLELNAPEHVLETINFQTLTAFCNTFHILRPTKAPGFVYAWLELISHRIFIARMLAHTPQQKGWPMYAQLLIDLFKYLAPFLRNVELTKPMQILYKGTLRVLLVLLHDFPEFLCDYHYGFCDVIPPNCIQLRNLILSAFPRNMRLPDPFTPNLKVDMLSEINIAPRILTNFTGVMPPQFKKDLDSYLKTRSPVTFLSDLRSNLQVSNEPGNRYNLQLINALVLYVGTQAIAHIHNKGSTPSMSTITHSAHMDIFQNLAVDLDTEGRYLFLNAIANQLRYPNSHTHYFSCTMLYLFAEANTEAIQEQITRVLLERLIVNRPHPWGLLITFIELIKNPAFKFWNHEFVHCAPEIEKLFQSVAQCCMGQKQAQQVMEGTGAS
UniProt Q7L5N1: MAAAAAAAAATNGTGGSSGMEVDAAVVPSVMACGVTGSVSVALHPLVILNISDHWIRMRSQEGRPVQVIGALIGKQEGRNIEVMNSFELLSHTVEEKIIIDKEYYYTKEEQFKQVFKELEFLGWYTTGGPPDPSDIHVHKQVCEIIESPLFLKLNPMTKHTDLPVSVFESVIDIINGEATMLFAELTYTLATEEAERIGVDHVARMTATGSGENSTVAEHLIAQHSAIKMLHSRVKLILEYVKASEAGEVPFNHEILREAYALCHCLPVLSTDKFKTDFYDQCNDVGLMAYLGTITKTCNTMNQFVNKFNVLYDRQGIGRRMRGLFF
UniProt P09669, whole entry, looked up: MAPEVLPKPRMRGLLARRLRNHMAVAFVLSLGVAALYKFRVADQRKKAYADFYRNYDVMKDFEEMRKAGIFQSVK
UniProt Q9BR76, whole entry, looked up: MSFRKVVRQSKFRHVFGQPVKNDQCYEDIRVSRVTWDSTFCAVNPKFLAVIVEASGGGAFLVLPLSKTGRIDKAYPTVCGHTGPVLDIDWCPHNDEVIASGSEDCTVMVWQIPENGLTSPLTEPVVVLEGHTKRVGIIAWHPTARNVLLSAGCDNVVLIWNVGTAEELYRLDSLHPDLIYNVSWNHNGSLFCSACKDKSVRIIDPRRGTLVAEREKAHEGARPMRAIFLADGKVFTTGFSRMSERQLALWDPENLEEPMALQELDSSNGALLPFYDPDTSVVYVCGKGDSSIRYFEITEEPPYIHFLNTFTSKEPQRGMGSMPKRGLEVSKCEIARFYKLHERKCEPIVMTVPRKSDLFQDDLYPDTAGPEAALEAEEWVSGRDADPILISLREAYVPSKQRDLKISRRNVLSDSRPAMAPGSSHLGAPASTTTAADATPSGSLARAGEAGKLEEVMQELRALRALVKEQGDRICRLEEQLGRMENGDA
UniProt Q8N8Q8: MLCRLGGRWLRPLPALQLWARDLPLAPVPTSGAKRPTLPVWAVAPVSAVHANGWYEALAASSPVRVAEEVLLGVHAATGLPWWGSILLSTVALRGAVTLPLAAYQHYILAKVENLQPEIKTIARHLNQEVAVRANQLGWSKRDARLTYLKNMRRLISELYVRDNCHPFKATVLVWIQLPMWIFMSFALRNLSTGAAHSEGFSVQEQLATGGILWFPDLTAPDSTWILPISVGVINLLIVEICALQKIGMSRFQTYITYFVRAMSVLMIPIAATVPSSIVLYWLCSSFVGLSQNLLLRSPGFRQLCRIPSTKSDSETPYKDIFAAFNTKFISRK
UniProt P20674, whole entry, looked up: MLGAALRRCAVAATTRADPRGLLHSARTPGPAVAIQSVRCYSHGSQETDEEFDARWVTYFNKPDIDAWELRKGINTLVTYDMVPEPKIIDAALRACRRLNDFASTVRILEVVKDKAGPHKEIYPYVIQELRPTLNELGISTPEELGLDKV

[1] = compound: C/C(=N\NC(=O)C1=CC(=CC=C1)S(=O)(=O)N2CCOCC2)/C3=C(C=CC(=C3)Cl)O
Method in brief: as §1

[2] = compound: C1=CC(=CC=C1C2=NC3=C(N2)C=C(C=C3)C(=O)N)OC4=CC=C(C=C4)Cl
Method in brief: as §1

[3] = compound: C1=CC2=C(C=CC(=C2)/C=C\3/C(=O)NC(=NCC4=CC=CS4)S3)N=C1
Method in brief: as §1

[4] = compound: C1=CC2=NC=CN=C2C=C1/C=C/3\C(=O)NC(=O)S3
Method in brief: as §1

[5] = compound: C1=CC=C(C=C1)C2=NC(=C(N2)C3=CC=NC=C3)C4=CC(=C(C=C4)Cl)O
Method in brief: as §1

[6] = compound: C1=CC=C2C(=C1)C3=NNC4=CC=CC(=C43)C2=O
Method in brief: as §1

[7] = compound: C1CCN(C1)C(=O)NC2=CC=CC(=C2)NC3=NC=C(C(=N3)NCCC4=CN=CN4)Br
Method in brief: as §1

[8] = compound: C1CN(CCC1(CC2=CC=C(C=C2)Cl)N)C3=NC=NC4=C3C=CN4
Method in brief: as §1

IRAK-1-4 Inhibitor I = compound: C1COCCN1CCN2C3=CC=CC=C3N=C2NC(=O)C4=CC(=CC=C4)[N+](=O)[O-] [IRAK-1-4 Inhibitor I]
Method in brief: as §1

Measured: log2 fold change

COMMD3 (UniProt Q9UBI1)
inactive: erlotinib 0.051 | [1] -0.098 | [2] -0.018 | [3] 0.072 | [4] -0.044 | [5] -0.01 | [6] -0.03 | [7] -0.018 | [8] 0.02 | IRAK-1-4 Inhibitor I -0.021

CNOT7 (UniProt Q9UIV1)
inactive: erlotinib 0.016 | [1] -0.014 | [2] 0.001 | [3] 0.03 | [4] -0.019 | [5] -0.017 | [6] -0.018 | [7] 0.001 | [8] 0.01 | IRAK-1-4 Inhibitor I -0.004

COMMD4 (UniProt Q9H0A8)
inactive: erlotinib -0.095 | [1] -0.042 | [2] -0.03 | [3] 0.036 | [4] 0.046 | [5] 0.084 | [6] -0.002 | [7] -0.071 | [8] 0.035 | IRAK-1-4 Inhibitor I -0.029

CPSF3 (UniProt Q9UKF6)
inactive: erlotinib -0.04 | [1] -0.035 | [2] -0.038 | [3] 0.029 | [4] 0.027 | [5] -0.01 | [6] 0.034 | [7] 0.037 | [8] -0.001 | IRAK-1-4 Inhibitor I -0.01

COMMD7 (UniProt Q86VX2)
inactive: erlotinib -0.015 | [1] -0.082 | [2] 0.035 | [3] -0.02 | [4] 0.018 | [5] 0.014 | [6] 0.017 | [7] -0.033 | [8] 0.039 | IRAK-1-4 Inhibitor I 0.03

COTL1 (UniProt Q14019)
inactive: erlotinib -0.012 | [1] 0.04 | [2] 0.013 | [3] -0.006 | [4] -0.02 | [5] 0 | [6] 0.004 | [7] 0.022 | [8] 0.008 | IRAK-1-4 Inhibitor I -0.03

2 entries drawn at random from the list so far, as already listed:
COTL1 (UniProt Q14019)
inactive: erlotinib -0.012 | [1] 0.04 | [2] 0.013 | [3] -0.006 | [4] -0.02 | [5] 0 | [6] 0.004 | [7] 0.022 | [8] 0.008 | IRAK-1-4 Inhibitor I -0.03

CNOT7 (UniProt Q9UIV1)
inactive: erlotinib 0.016 | [1] -0.014 | [2] 0.001 | [3] 0.03 | [4] -0.019 | [5] -0.017 | [6] -0.018 | [7] 0.001 | [8] 0.01 | IRAK-1-4 Inhibitor I -0.004

(further entries)

COPG2 (UniProt Q9UBF2)
inactive: erlotinib -0.004 | [1] -0.007 | [2] 0.011 | [3] 0 | [4] 0.007 | [5] -0.002 | [6] -0.012 | [7] 0.002 | [8] 0.025 | IRAK-1-4 Inhibitor I 0.014

CPEB4 (UniProt Q17RY0)
inactive: erlotinib -0.166 | [1] -0.016 | [2] 0.016 | [3] -0.044 | [4] 0.084 | [5] -0.034 | [6] -0.068 | [7] -0.025 | [8] 0.085 | IRAK-1-4 Inhibitor I 0.013

CPSF2 (UniProt Q9P2I0)
inactive: erlotinib -0.002 | [1] -0.031 | [2] -0.003 | [3] -0.011 | [4] -0.014 | [5] 0.003 | [6] 0.011 | [7] -0.016 | [8] 0.021 | IRAK-1-4 Inhibitor I 0.015

COQ7 (UniProt Q99807)
inactive: erlotinib -0.014 | [1] -0.079 | [2] 0.027 | [3] 0.011 | [4] -0.006 | [5] -0.008 | [6] -0.031 | [7] 0.009 | [8] 0.007 | IRAK-1-4 Inhibitor I 0.063

CNOT6L (UniProt Q96LI5)
inactive: erlotinib -0.011 | [1] 0 | [2] 0.007 | [3] -0.02 | [4] 0.007 | [5] -0.04 | [6] -0.042 | [7] -0.018 | [8] -0.012 | IRAK-1-4 Inhibitor I 0.002

COX5B (UniProt P10606)
inactive: erlotinib 0.059 | [1] 0.046 | [2] -0.054 | [3] 0.056 | [4] -0.034 | [5] 0.007 | [6] 0.076 | [7] -0.001 | [8] 0.094 | IRAK-1-4 Inhibitor I -0.014

COPS7B (UniProt Q9H9Q2)
inactive: erlotinib -0.025 | [1] 0.082 | [2] 0.095 | [3] 0.006 | [4] 0.011 | [5] 0.004 | [6] 0.006 | [7] -0.102 | [8] 0.052 | IRAK-1-4 Inhibitor I -0.046

COX15 (UniProt Q7KZN9)
inactive: erlotinib 0.021 | [1] -0.046 | [2] -0.034 | [3] -0.013 | [4] 0.016 | [5] -0.052 | [6] -0.081 | [7] 0.011 | [8] -0.013 | IRAK-1-4 Inhibitor I -0.003

COX6B1 (UniProt P14854)
inactive: erlotinib 0.014 | [1] 0.129 | [2] -0.009 | [3] 0.063 | [4] -0.061 | [5] -0.062 | [6] -0.023 | [7] -0.024 | [8] 0.066 | IRAK-1-4 Inhibitor I -0.033

CNPY2 (UniProt Q9Y2B0)
inactive: erlotinib -0.034 | [1] 0.001 | [2] 0.024 | [3] 0.006 | [4] 0.023 | [5] -0.01 | [6] 0.004 | [7] 0.009 | [8] -0.016 | IRAK-1-4 Inhibitor I -0.056

COQ8A (UniProt Q8NI60)
inactive: erlotinib 0.154 | [1] 0.014 | [2] -0.057 | [3] 0.008 | [4] -0.083 | [5] 0.029 | [6] 0.105 | [7] -0.01 | [8] 0.007 | IRAK-1-4 Inhibitor I -0.034

COX4I1 (UniProt P13073)
inactive: erlotinib 0.001 | [1] 0.033 | [2] 0.008 | [3] -0.008 | [4] 0.011 | [5] 0.005 | [6] 0.026 | [7] 0.018 | [8] 0.019 | IRAK-1-4 Inhibitor I 0.014

CORO2A (UniProt Q92828)
inactive: erlotinib -0.118 | [1] 0.033 | [2] -0.082 | [3] 0.097 | [4] -0.025 | [5] 0.013 | [6] -0.047 | [7] -0.089 | [8] -0.029 | IRAK-1-4 Inhibitor I -0.041

CPED1 (UniProt A4D0V7)
inactive: erlotinib -0.02 | [1] -0.15 | [2] -0.035 | [3] 0.009 | [4] -0.058 | [5] -0.014 | [6] -0.011 | [7] 0.002 | [8] -0.009 | IRAK-1-4 Inhibitor I 0.045

CNOT1 (UniProt A5YKK6)
inactive: erlotinib 0.006 | [1] 0.074 | [2] 0.016 | [3] -0.022 | [4] 0.009 | [5] -0.009 | [6] -0.028 | [7] -0.016 | [8] -0.011 | IRAK-1-4 Inhibitor I -0.001

COLGALT1 (UniProt Q8NBJ5)
inactive: erlotinib 0.006 | [1] 0.009 | [2] -0.005 | [3] 0.017 | [4] 0.018 | [5] 0.001 | [6] -0.033 | [7] 0.027 | [8] -0.001 | IRAK-1-4 Inhibitor I -0.003

COPS6 (UniProt Q7L5N1)
inactive: erlotinib -0.043 | [1] 0.035 | [2] -0.02 | [3] 0.04 | [4] -0.03 | [5] 0.019 | [6] 0.018 | [7] 0 | [8] -0.055 | IRAK-1-4 Inhibitor I 0.037

COX6C (UniProt P09669)
inactive: erlotinib -0.027 | [1] 0.048 | [2] -0.034 | [3] 0.022 | [4] 0.004 | [5] -0.005 | [6] 0.046 | [7] 0.008 | [8] -0.002 | IRAK-1-4 Inhibitor I 0.004

CNOT3 (UniProt O75175)
inactive: erlotinib 0.056 | [1] 0.094 | [2] 0.031 | [3] 0.002 | [4] -0.004 | [5] -0.001 | [6] -0.01 | [7] -0.08 | [8] 0.054 | IRAK-1-4 Inhibitor I -0.006

CORO1B (UniProt Q9BR76)
inactive: erlotinib 0.005 | [1] -0.196 | [2] 0.011 | [3] -0.019 | [4] 0.01 | [5] -0.01 | [6] -0.013 | [7] -0.004 | [8] -0.011 | IRAK-1-4 Inhibitor I 0.003

COX18 (UniProt Q8N8Q8)
inactive: erlotinib 0.019 | [1] 0.017 | [2] -0.152 | [3] 0.004 | [4] 0.024 | [5] -0.028 | [6] -0.036 | [7] 0.059 | [8] -0.035 | IRAK-1-4 Inhibitor I 0.009

COX5A (UniProt P20674)
inactive: erlotinib 0.085 | [1] -0.042 | [2] -0.012 | [3] 0.068 | [4] 0 | [5] -0.024 | [6] 0.052 | [7] 0.048 | [8] 0.01 | IRAK-1-4 Inhibitor I -0.05

COMMD1 (UniProt Q8N668)
inactive: erlotinib 0.029 | [1] 0.025 | [2] -0.031 | [3] 0.032 | [4] -0.053 | [5] -0.057 | [6] -0.021 | [7] 0.047 | [8] 0.023 | IRAK-1-4 Inhibitor I 0.008

COL15A1 (UniProt P39059)
inactive: erlotinib 0.001 | [1] -0.179 | [2] 0.009 | [3] 0.042 | [4] 0.001 | [5] -0.073 | [6] -0.035 | [7] -0.073 | [8] -0.058 | IRAK-1-4 Inhibitor I 0.043
